In general, AC50 refers to the concentration at which the activity in the assay is half-maximal.

The results in this text go back to PubChem BioAssay AID493014 (National Center for Advancing Translational Sciences (NCATS), 2011).

The other results are listed elsewhere or left out. Further columns of the screen follow, without active or inactive calls. Most of these compounds were active or inconclusive in the main read-out, so they are no random draw. The note in brackets gives the kind of curve behind each potency; many fits are weak.

A short description of this experiment: qHTS Assay to Find Inhibitors of Chronic Active B-Cell Receptor Signaling. Conditions: ABC-DLBCL IkBa-CBG/CBR reporter, luminescence ratio (green luciferase fused to IkBa over red control in TMD8 lymphoma cells), 4 h. The procedure, abridged:
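TMD8 human ABC-DLBCL cells with doxycycline-inducible IκBα–green luciferase fusion and unfused red luciferase, in 0.5% FBS medium; compounds up to 46 uM, 4 h at 37C. Green/red luminescence ratio, filter-overlap corrected, fitted to concentration-response curves.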

Setting [1] is: measured here: CBR red luminescence, cell number.
[2] abbreviates: measured here: IkBa-CBG green luminescence.

Consider `Cc1ccc(Nc2nc(N)c3ccccc3n2)cc1C`, for which the AC50 is 17.8 µM [falling, partial curve, poor fit] under setting [1] and 31.6 µM [falling, single point] under setting [2].
As to `N/C(=N\NC(=O)c1cccc(F)c1)c1cc2ccccc2oc1=O`, the AC50 under setting [1] is 20 µM [falling, partial curve, poor fit].
Take `COc1ccc(CN2CCN(CCc3ccccc3)C(CCO)C2)cc1Cn1cncn1` (configuration not stated): the AC50 under setting [1] was 0.282 µM [rising, full curve, poor fit].
On the same count and under the same terms, the same measure for `Cc1ccc(NC(=O)CC(=O)c2ccccc2)cc1C`: 14.1 µM [falling, single point].
Still for that read-out and setting: with `Cc1ccc(C(C(=O)NC2CCCCC2)N2CCCC2)cc1` (configuration not stated) the figure was 20.6 µM [falling, single point].
Still for that read-out and setting: the same measure for `O=C(CCC1CCCCC1)Nc1nccs1`: 14.1 µM [falling, single point].
As to `Nc1nc2ccc(C(=O)NCCOC(=O)C3CCCCC3)cc2s1`, the AC50 under setting [1] is 0.251 µM [rising, full curve, poor fit].
On the same count and under the same terms, the same measure for `Cc1ccc2[nH]c(=O)c(CN(CCc3ccccc3)C(c3nnnn3Cc3ccco3)C(C)C)cc2c1` (configuration not stated): 7.94 µM [rising, single point].
Still for that read-out and setting: the same measure for `CCOc1ccc(NC(=O)CCNS(=O)(=O)c2cccs2)cc1`: 2.31 µM [rising, single point]; for `CCCc1nc2ccccc2c(=O)n1/N=C/c1ccc(O)c(O)c1`: 7.94 µM [falling, partial curve]; for `COc1cccc2cc(C(=O)Nc3cc(C)cc(C)c3)/c(=N/NS(=O)(=O)c3ccccc3)oc12`: 0.0891 µM [falling, full curve, poor fit].
On the same count and under the same terms, the same measure for `COC(=O)c1ccc(-c2ccc(C(c3c(C)[nH][nH]c3=O)c3c(C)[nH][nH]c3=O)o2)cc1`: 5.01 µM [falling, partial curve].
Turning to `CCN(CC)C(=O)CCCSc1nnc(Nc2ccccc2F)s1`, the half-maximal activity concentration (AC50) under setting [1] was 4.47 µM [falling, partial curve].
As for `Cc1ccc(S(=O)(=O)Nc2ccc(NC(=O)c3cccs3)cc2)cc1`, the AC50 under setting [1] is 20 µM [rising, partial curve, poor fit].
The same measure, in the same setting: the same measure for `CCOC(=O)CC(=O)COc1nc2cc3c(nc2o1)CCCC3`: 10 µM [falling, partial curve, poor fit]; for `N/C(=N\OC(=O)c1ccccc1)c1ccccn1`: 1.58 µM [falling, partial curve].
As to `COc1cccc(C2/C(=C(/O)c3cnn(-c4ccccc4)c3C)C(=O)C(=O)N2CCN(C)C)c1OC` (configuration not stated), under setting [1], the AC50 was 6.31 µM [rising, single point].
Same read-out and setting: the same measure for `O=C(/C=C/c1ccc(Br)cc1)NCc1cccs1`: 18.4 µM [falling, single point]; for `COc1ccc(-n2c(C)cc(C(=O)CN3C(=O)NC4(CCc5ccccc54)C3=O)c2C)cc1` (configuration not stated): 25.9 µM [falling, partial curve, poor fit]; for `Cc1ccc(COC(=O)Cc2coc3cc(O)ccc23)cc1`: 12.6 µM [rising, partial curve, poor fit].
As to `NCc1c(O)ccc2ccccc12`, under setting [1], the AC50 was 7.94 µM [falling, partial curve, poor fit].
As to `Cc1onc(-c2ccccc2)c1C(=O)N1CCN(C)CC1`, the AC50 under setting [1] was 25.9 µM [rising, single point].
As for `Nc1ccc2c(c1)C(=O)C(=O)c1ccccc1-2`, the AC50 is 1.3 µM [falling, full curve, poor fit] under setting [1] and 3.26 µM [rising, partial curve, poor fit] under setting [2].
For `O=C(N/N=C/c1ccc(Br)s1)c1ccc([N+](=O)[O-])cc1`, the AC50 under setting [1] was 0.794 µM [rising, full curve, poor fit].
Same read-out and setting: with `O=C(CS(=O)(=O)c1ccccc1)N1CCN(c2ccccc2)CC1` the figure was 4.11 µM [rising, partial curve, poor fit]; with `CN(C)c1ccc(N=c2sc3ccccc3n2C)cc1`, 4.11 µM [rising, single point]; with `O=C(NCc1ccccc1Br)c1ccco1`, 7.31 µM [falling, partial curve, poor fit].
For the compound `CC(C)Cc1cc(C(=O)Nc2cccc(O)c2)no1`, the AC50 under setting [1] was 10 µM [falling, partial curve].
Still for that read-out and setting: with `CCC(=O)Nc1nnc(S(=O)(=O)N(C)c2cc(C)cc(C)c2)s1` the figure was 4.47 µM [rising, single point]; with `COc1ccc(-n2nc(C(=O)NCC(=O)N3CCN(c4ccccc4OC)CC3)c3ccccc3c2=O)cc1OC`, 3.98 µM [rising, partial curve, poor fit]; with `COc1cc(C2C(C(=O)c3ccc(C)o3)=C(O)C(=O)N2c2cc(C)on2)ccc1O` (configuration not stated), 5.01 µM [rising, single point].
The same measure, in the same setting: with `COc1cc(C(C(=O)NC2CCCC2)N(CCO)C(=O)Cn2nnc(-c3ccc(C)o3)n2)ccc1O` (configuration not stated) the figure was 3.16 µM [falling, partial curve, poor fit].
Same read-out and setting: the same measure for `CCCC(=O)n1nc(-c2ccco2)nc1SCc1ccccc1`: 20.6 µM [falling, partial curve]; for `Cc1onc(-c2ccccc2)c1C(=O)Nc1sc2c(c1C#N)CCC2`: 5.8 µM [falling, partial curve, poor fit].
On to `COCC(=O)N(C)C1(c2nnnn2CCOC(=O)Nc2ccc(Cl)cc2)CCCC1`, for which the AC50 under setting [1] is 3.26 µM [rising, partial curve].
Still for that read-out and setting: with `O=C(/C=C/c1ccco1)N(Cc1ccccc1)C1CCS(=O)(=O)C1` (configuration not stated) the figure was 14.1 µM [rising, single point].
On the same count and under the same terms, with `COCCNS(=O)(=O)c1cc(OC)c(Cl)cc1Cl` the figure was 2.59 µM [rising, single point].
For `CSc1ccccc1NC(=O)COc1ccc2c(c1)OCO2`, the AC50 under setting [1] is 6.51 µM [falling, partial curve].
On the same count and under the same terms, with `CCSc1nnc(NC(=O)C(C)(C)C)s1` the figure was 6.31 µM [rising, full curve, poor fit].
On the same count and under the same terms, with `O=C(NC1CCCCC1)c1ccc(N2CCOCC2)c([N+](=O)[O-])c1` the figure was 5.01 µM [rising, full curve, poor fit]; with `N#Cc1c(=O)c2nc(NCCCO)ncc2n2c(=O)c3ccccc3[nH]c12`, 10 µM [falling, partial curve]; with `Cc1cc(SCC(=O)Nc2ccc(O)cc2)n2nc(C)c(-c3ccccc3)c2n1`, 35.5 µM [falling, single point].
On the same count and under the same terms, with `CNc1ccccc(C(=O)/C=C/c2ccccc2OC)c1=O` the figure was 18.4 µM [falling, partial curve]; with `CC(=O)c1c(C)[nH]c(C(=O)NCc2ccc(C)cc2)c1C`, 2.06 µM [falling, partial curve, poor fit].
In the case of `CC1(C)CC(=O)C2=C(C1)OC(N)=C(C#N)C21C(=O)N(Cc2ccccc2Cl)c2ccccc21` (configuration not stated), the AC50 under setting [1] was 0.461 µM [falling, full curve, poor fit].
Still for that read-out and setting: the same measure for `N#C/C(C(N)=O)=C1/CCc2ccccc2N1`: 4.61 µM [falling, full curve, poor fit]; for `O=C1NCCOC(=O)[C@H](Cc2ccc(F)cc2)C/C=C\C[C@@H]1CC(=O)N(CCO)Cc1ccccc1`: 6.51 µM [falling, single point].
As for `Cc1nc2cc(NC(=O)Nc3ccccc3Cl)ccc2n1C`, the AC50 under setting [1] was 12.6 µM [falling, partial curve].
Same read-out and setting: with `O=C(Nc1nccs1)c1ccc(S(=O)(=O)N2CCOCC2)cc1` the figure was 12.6 µM [falling, partial curve]; with `O=C(NN=C1CCCCC1)c1ccccc1OCc1ccc(F)cc1`, 20.6 µM [falling, single point].
With `O=C(O)C(Cc1ccccc1)N1C(=O)/C(=C/c2ccccc2)SC1=S` (configuration not stated), the AC50 under setting [1] is 25.9 µM [falling, single point].
The same measure, in the same setting: the same measure for `CCCOC(=S)NC(=O)c1sc2ccccc2c1Cl`: 20 µM [falling, single point]; for `CC(=O)Nc1ccc(S(=O)(=O)N2CCN(c3cnn(C)c(=O)c3Cl)CC2)cc1`: 5.01 µM [rising, partial curve, poor fit].
Still for that read-out and setting: the same measure for `CC(NC(=O)CSc1nc2sc3c(c2c(=O)n1-c1ccccc1)CCCC3)c1ccccc1` (configuration not stated): 2.31 µM [falling, partial curve, poor fit].
Same read-out and setting: the same measure for `O=C(COc1ccc(Br)cc1)NCC1COc2ccccc2O1` (configuration not stated): 1.64 µM [rising, full curve]; for `CCOC(=O)c1ccc(NC(=O)c2ccc(NS(C)(=O)=O)cc2)cc1`: 18.4 µM [falling, partial curve]; for `Cn1c(C(=O)NCc2ccccc2)cc2oc3ccccc3c21`: 0.58 µM [falling, full curve, poor fit].
Take `O=C(NNC(=O)c1ccc(-n2cncn2)c([N+](=O)[O-])c1)c1ccccc1`: under setting [1], the AC50 was 20.6 µM [falling, partial curve].
The same measure, in the same setting: the same measure for `CCNCC(=O)N1c2ccccc2CCc2ccc(NC(=O)OC(C)C)cc21`: 12.6 µM [falling, single point].
On the same count and under the same terms, with `Cn1c(/C(C#N)=C/c2cccc(O)c2)nc2ccccc21` the figure was 10 µM [falling, single point]; with `O=C(Cc1nc2ccccc2s1)c1ccc(O)cc1O`, 13 µM [falling, single point].
Same read-out and setting: with `CCCn1c(=O)c(C(=O)NNC(=O)c2ccccc2[N+](=O)[O-])c(O)c2ccccc21` the figure was 12.6 µM [falling, partial curve]; with `S=C(Nc1ccc(-c2nc3ccccc3[nH]2)cc1)Nc1cccnc1`, 8.91 µM [falling, partial curve]; with `O=C(c1ccccc1Cl)N1CCN(S(=O)(=O)c2cccs2)CC1`, 1.41 µM [rising, full curve, poor fit].
Consider `Cc1c(CCCN)c2ccccc2n1Cc1ccccc1`, for which, under setting [1], the AC50 was 10 µM [falling, partial curve, poor fit].
